Results taken from US20210261642A1, “SOLUBILITY OF GLP-1 PEPTIDE” (Novo Nordisk A/S, priority 2017, published 2021).
The source gives many values for each of these; only a part stands here.

Test: Assay (I): Determination of Solubility (96-well plate, pH 3.0-11.0, organic solvent 0-70% w/w, UV absorption at 280 nm)
Format: physicochemical
Details: Method 1
Experimental: Assay (I): Determination of Solubility
96-Well Plate Preparation
96-well plates containing target peptide in a solid form were prepared in one of two ways:
Method 1 (evaporation): Addition of 100 μl stock solution of said peptide at a concentration of 4-6 mg/ml to each well of a 96-well half area plate (150 μl well size). Subsequently the solvent was evaporated by applying a vacuum until the solvent was completely removed.
Method 2 (precipitation): Addition of a certain volume of a stock solution of said peptide containing to each well of a 96-well half area plate followed by the addition of a certain volume of concentrated phosphoric acid to obtain a pH of 4.6 followed by addition of a certain volume of ethanol resulting in a final ethanol concentration of 20% v/v. Subsequently the plate was stored at 4° C. for 1 h and then centrifuged at 4,000 rpm for 20 min. Finally the supernatant was removed. The concentration of the stock solution was chosen in a way that the final amount of peptide after supernatant removal was >0.4 mg per well.
In both cases the stock solution was prepared by adding de-ionized water to a certain amount of powder of said peptide followed by a stepwise addition of small amounts of a concentrated sodium hydroxide solution until said peptide was completely in solution.
To determine solubility of a target peptide at different pH and organic solvent concentrations, two different buffer systems were used in independent experiments to cover the whole range from pH 3.0 to pH 11.0. Buffer system 1 covers pH 3.0-7.5 and buffer system 2 covers pH 7.5-11.0. For each buffer system 96 different solvent compositions were premixed in the following way: • 1. A low pH buffer (adjusted to either pH 3.0 or pH 7.5) and a high pH buffer (adjusted to either pH 7.5 or pH 11.0) were mixed at 8 different ratios to obtain values between pH 3.0 and pH 7.5 or pH 7.5 and pH 11.0, respectively. The total volume after mixing was 300 μl. • 2. 12 different amounts of organic solvent were then added to these buffers to obtain organic solvent (e.g. ethanol) concentrations between 0 and 70% w/w. • 3. Water was then added to obtain a total weight of 1.0 g of solvent in each well.
After preparing the 96 different solvent systems, 100 μl of each system was transferred to the 96-well plate containing the solid form of the target peptide (prepared as described in the section “96-well plate preparation”). The plate was then stored at a given temperature (between 5° C. and 70° C.) for a given time on a rotating shaker set to 400 rpm. At regular time intervals the plate was centrifuged (4,000 rpm for 10 min) and a 10 μl sample was taken from each well. The samples were then analysed by UV absorption at 280 nm for peptide quantification. Peptide concentration results are given as UV absorption at 280 nm of the sample subtracted UV absorption at 280 nm of a well comprising 10 μl water.
The buffers used were as follows: • Buffer system 1 (for the pH range from pH 3.0-7.5)
• Buffer system 2 (for the pH ranae from pH 7.5-11.0)
Solubility of liraglutide was determined using Assay (I) described herein. Liraglutide was prepared using Method 1 (evaporation) or Method 2 (precipitation) as described in subsection “96-well plate preparation”.

[1] = MeCN 12.7% w/w, pH 10.0, 70° C.
[2] = MeCN 12.7% w/w, pH 10.5, 70° C.
[3] = MeCN 12.7% w/w, pH 11.0, 70° C.

## CCCCCCCCCCCCCCCC(=O)N[C@@H](CCC(=O)NCCCC[C@H](NC(=O)[C@H](C)NC(=O)[C@H](C)NC(=O)[C@H](CCC(N)=O)NC(=O)CNC(=O)[C@H](CCC(=O)O)NC(=O)[C@H](CC(C)C)NC(=O)[C@H](Cc1ccc(O)cc1)NC(=O)[C@H](CO)NC(=O)[C@H](CO)NC(=O)[C@@H](NC(=O)[C@H](CC(=O)O)NC(=O)[C@H](CO)NC(=O)[C@@H](NC(=O)[C@H](Cc1ccccc1)NC(=O)[C@@H](NC(=O)CNC(=O)[C@H](CCC(=O)O)NC(=O)[C@H](C)NC(=O)[C@@H](N)Cc1cnc[nH]1)[C@@H](C)O)[C@@H](C)O)C(C)C)C(=O)N[C@@H](CCC(=O)O)C(=O)N[C@@H](Cc1ccccc1)C(=O)N[C@H](C(=O)N[C@@H](C)C(=O)N[C@@H](Cc1c[nH]c2ccccc12)C(=O)N[C@@H](CC(C)C)C(=O)N[C@H](C(=O)N[C@@H](CCCNC(=N)N)C(=O)NCC(=O)N[C@@H](CCCNC(=N)N)C(=O)NCC(=O)O)C(C)C)[C@@H](C)CC)C(=O)O [liraglutide, Arg34,Lys26-(N-epsilon-(gamma-L-glutamyl(N-alfa-hexadecanoyl)))-GLP-1(7-37)]
MeCN 12.7% w/w, pH 3.0, 5° C.
  Peptide concentration after 180 min: 0.2 mg/mL
  Peptide concentration after 24 h: 0.3 mg/mL
MeCN 12.7% w/w, pH 3.0, 70° C.
  Peptide concentration after 5 min: 3.5 mg/mL
  Peptide concentration after 180 min: >4.0 mg/mL
MeCN 12.7% w/w, pH 3.0, RT
  Peptide concentration after 5 min: 0.3 mg/mL
  Peptide concentration after 180 min: 0.1 mg/mL
  Peptide concentration after 24 h: 0.1 mg/mL
MeCN 12.7% w/w, pH 3.6, 5° C.
  Peptide concentration after 5 min: 0.1 mg/mL
  Peptide concentration after 180 min: 0.2 mg/mL
  Peptide concentration after 24 h: 0.2 mg/mL
MeCN 12.7% w/w, pH 3.6, 70° C.
  Peptide concentration after 5 min: 0.3 mg/mL
  Peptide concentration after 180 min: 0.1 mg/mL
MeCN 12.7% w/w, pH 3.6, RT
  Peptide concentration after 5 min: 0.1 mg/mL
  Peptide concentration after 180 min: 0.1 mg/mL
  Peptide concentration after 24 h: 0.1 mg/mL
MeCN 12.7% w/w, pH 4.3, 5° C.
  Peptide concentration after 5 min: 0.1 mg/mL
  Peptide concentration after 180 min: 0.1 mg/mL
  Peptide concentration after 24 h: 0.1 mg/mL
MeCN 12.7% w/w, pH 4.3, 70° C.
  Peptide concentration after 5 min: 0.1 mg/mL
  Peptide concentration after 180 min: 0.0 mg/mL
MeCN 12.7% w/w, pH 4.3, RT
  Peptide concentration after 5 min: 0.1 mg/mL
  Peptide concentration after 180 min: 0.1 mg/mL
  Peptide concentration after 24 h: 0.1 mg/mL
MeCN 12.7% w/w, pH 4.9, 5° C.
  Peptide concentration after 5 min: 0.1 mg/mL
  Peptide concentration after 180 min: 0.1 mg/mL
  Peptide concentration after 24 h: 0.1 mg/mL
MeCN 12.7% w/w, pH 4.9, 70° C.
  Peptide concentration after 5 min: 0.1 mg/mL
  Peptide concentration after 180 min: 0.1 mg/mL
MeCN 12.7% w/w, pH 4.9, RT
  Peptide concentration after 5 min: 0.1 mg/mL
  Peptide concentration after 180 min: 0.1 mg/mL
  Peptide concentration after 24 h: 0.0 mg/mL
MeCN 12.7% w/w, pH 5.6, 5° C.
  Peptide concentration after 5 min: 0.1 mg/mL
  Peptide concentration after 180 min: 0.1 mg/mL
  Peptide concentration after 24 h: 0.1 mg/mL
MeCN 12.7% w/w, pH 5.6, 70° C.
  Peptide concentration after 5 min: 0.5 mg/mL
  Peptide concentration after 180 min: 0.1 mg/mL
MeCN 12.7% w/w, pH 5.6, RT
  Peptide concentration after 5 min: 0.2 mg/mL
  Peptide concentration after 180 min: 0.2 mg/mL
  Peptide concentration after 24 h: 0.1 mg/mL
MeCN 12.7% w/w, pH 6.2, 5° C.
  Peptide concentration after 5 min: 0.2 mg/mL
  Peptide concentration after 180 min: 0.3 mg/mL
  Peptide concentration after 24 h: 0.4 mg/mL
MeCN 12.7% w/w, pH 6.2, 70° C.
  Peptide concentration after 5 min: 1.8 mg/mL
  Peptide concentration after 180 min: 1.3 mg/mL
MeCN 12.7% w/w, pH 6.2, RT
  Peptide concentration after 5 min: 0.5 mg/mL
  Peptide concentration after 180 min: 1.2 mg/mL
  Peptide concentration after 24 h: 1.3 mg/mL
MeCN 12.7% w/w, pH 6.9, 5° C.
  Peptide concentration after 5 min: 1.0 mg/mL
  Peptide concentration after 180 min: 2.3 mg/mL
  Peptide concentration after 24 h: >4.0 mg/mL
MeCN 12.7% w/w, pH 6.9, 70° C.
  Peptide concentration after 5 min: 3.2 mg/mL
  Peptide concentration after 180 min: >4.0 mg/mL
MeCN 12.7% w/w, pH 6.9, RT
  Peptide concentration after 5 min: 1.2 mg/mL
  Peptide concentration after 180 min: 2.6 mg/mL
  Peptide concentration after 24 h: >4.0 mg/mL
MeCN 12.7% w/w, pH 7.5, 5° C.
  Peptide concentration after 5 min: 1.3 mg/mL
  Peptide concentration after 180 min: 2.3 mg/mL
  Peptide concentration after 24 h: >4.0 mg/mL
MeCN 12.7% w/w, pH 7.5, 70° C.
  Peptide concentration after 5 min: 3.7 mg/mL
  Peptide concentration after 180 min: >4.0 mg/mL
MeCN 12.7% w/w, pH 7.5, RT
  Peptide concentration after 5 min: 1.4 mg/mL
  Peptide concentration after 180 min: 3.6 mg/mL
  Peptide concentration after 24 h: >4.0 mg/mL
MeCN 12.7% w/w, pH 8.0, 70° C.
  Peptide concentration after 5 min: 3.6 mg/mL
  Peptide concentration after 180 min: >4.0 mg/mL
MeCN 12.7% w/w, pH 8.0, RT
  Peptide concentration after 5 min: 3.2 mg/mL
  Peptide concentration after 180 min: 3.8 mg/mL
  Peptide concentration after 24 h: >4.0 mg/mL
MeCN 12.7% w/w, pH 8.5, 70° C.
  Peptide concentration after 5 min: 3.5 mg/mL
  Peptide concentration after 180 min: >4.0 mg/mL
MeCN 12.7% w/w, pH 8.5, RT
  Peptide concentration after 5 min: 0.9 mg/mL
  Peptide concentration after 180 min: 2.6 mg/mL
  Peptide concentration after 24 h: >4.0 mg/mL
MeCN 12.7% w/w, pH 9.0, 70° C.
  Peptide concentration after 5 min: 3.5 mg/mL
  Peptide concentration after 180 min: >4.0 mg/mL
MeCN 12.7% w/w, pH 9.0, RT
  Peptide concentration after 5 min: 1.0 mg/mL
  Peptide concentration after 180 min: 2.6 mg/mL
  Peptide concentration after 24 h: >4.0 mg/mL
MeCN 12.7% w/w, pH 9.5, 70° C.
  Peptide concentration after 5 min: >4.0 mg/mL
  Peptide concentration after 180 min: >4.0 mg/mL
MeCN 12.7% w/w, pH 9.5, RT
  Peptide concentration after 5 min: 1.1 mg/mL
  Peptide concentration after 180 min: 2.9 mg/mL
  Peptide concentration after 24 h: >4.0 mg/mL
[1]
  Peptide concentration after 5 min: >4.0 mg/mL
  Peptide concentration after 180 min: >4.0 mg/mL
MeCN 12.7% w/w, pH 10.0, RT
  Peptide concentration after 5 min: 1.0 mg/mL
  Peptide concentration after 180 min: 3.3 mg/mL
  Peptide concentration after 24 h: >4.0 mg/mL
[2]
  Peptide concentration after 5 min: >4.0 mg/mL
  Peptide concentration after 180 min: >4.0 mg/mL
MeCN 12.7% w/w, pH 10.5, RT
  Peptide concentration after 5 min: 1.2 mg/mL
  Peptide concentration after 180 min: 3.3 mg/mL
  Peptide concentration after 24 h: >4.0 mg/mL
[3]
  Peptide concentration after 5 min: 3.3 mg/mL
  Peptide concentration after 180 min: >4.0 mg/mL
MeCN 12.7% w/w, pH 11.0, RT
  Peptide concentration after 5 min: 1.0 mg/mL
  Peptide concentration after 180 min: 2.9 mg/mL
  Peptide concentration after 24 h: >4.0 mg/mL
MeCN 19.1% w/w, pH 3.0, 5° C.
  Peptide concentration after 5 min: 0.7 mg/mL
